Source: patent US20250353864A1, “INDAZOLE CONTAINING MACROCYCLES AND THEIR USE” (BLOSSOMHILL THERAPEUTICS, INC., priority 2022, published 2025)

By UniProt entry, the sequences of proteins in these tests, tags left out. Where a name states a change or a piece, a line headed by the entry shows the natural chain unless it says otherwise. Chains listed by the source or under a name are the forms on record and can include a tag or linker. Residues count along the entry.
UniProt P00533, 25-1210 limits assumed: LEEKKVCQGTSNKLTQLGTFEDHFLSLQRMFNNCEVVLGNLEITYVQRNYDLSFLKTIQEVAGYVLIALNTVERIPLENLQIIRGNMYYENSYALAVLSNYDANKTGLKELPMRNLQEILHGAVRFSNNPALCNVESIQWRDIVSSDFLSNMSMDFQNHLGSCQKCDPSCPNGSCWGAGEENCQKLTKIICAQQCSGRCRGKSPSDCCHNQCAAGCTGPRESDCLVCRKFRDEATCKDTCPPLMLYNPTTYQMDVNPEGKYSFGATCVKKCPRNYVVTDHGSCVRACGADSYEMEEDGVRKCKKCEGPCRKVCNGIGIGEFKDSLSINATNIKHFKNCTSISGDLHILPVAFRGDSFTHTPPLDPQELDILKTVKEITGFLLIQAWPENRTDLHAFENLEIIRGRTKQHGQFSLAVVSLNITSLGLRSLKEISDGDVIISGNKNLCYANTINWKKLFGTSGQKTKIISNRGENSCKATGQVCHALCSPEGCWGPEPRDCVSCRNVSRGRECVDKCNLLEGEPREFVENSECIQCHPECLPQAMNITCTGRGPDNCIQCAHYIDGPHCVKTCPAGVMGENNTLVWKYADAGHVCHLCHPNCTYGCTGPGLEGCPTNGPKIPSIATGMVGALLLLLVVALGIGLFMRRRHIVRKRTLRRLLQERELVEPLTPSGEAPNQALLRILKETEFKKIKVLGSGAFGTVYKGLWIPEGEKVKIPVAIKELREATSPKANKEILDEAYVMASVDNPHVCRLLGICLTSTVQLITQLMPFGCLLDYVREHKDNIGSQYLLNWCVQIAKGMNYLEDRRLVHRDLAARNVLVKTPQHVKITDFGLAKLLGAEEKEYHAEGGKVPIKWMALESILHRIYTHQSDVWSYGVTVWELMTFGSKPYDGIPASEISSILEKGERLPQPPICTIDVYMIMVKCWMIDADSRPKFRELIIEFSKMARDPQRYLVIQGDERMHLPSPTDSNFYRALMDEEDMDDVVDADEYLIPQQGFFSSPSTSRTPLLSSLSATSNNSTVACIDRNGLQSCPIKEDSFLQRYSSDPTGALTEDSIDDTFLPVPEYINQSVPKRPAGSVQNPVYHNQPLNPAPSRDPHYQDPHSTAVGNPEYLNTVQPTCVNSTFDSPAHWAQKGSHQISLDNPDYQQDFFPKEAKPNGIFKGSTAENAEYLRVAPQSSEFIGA
UniProt P00533, 25-1210 L858R limits assumed: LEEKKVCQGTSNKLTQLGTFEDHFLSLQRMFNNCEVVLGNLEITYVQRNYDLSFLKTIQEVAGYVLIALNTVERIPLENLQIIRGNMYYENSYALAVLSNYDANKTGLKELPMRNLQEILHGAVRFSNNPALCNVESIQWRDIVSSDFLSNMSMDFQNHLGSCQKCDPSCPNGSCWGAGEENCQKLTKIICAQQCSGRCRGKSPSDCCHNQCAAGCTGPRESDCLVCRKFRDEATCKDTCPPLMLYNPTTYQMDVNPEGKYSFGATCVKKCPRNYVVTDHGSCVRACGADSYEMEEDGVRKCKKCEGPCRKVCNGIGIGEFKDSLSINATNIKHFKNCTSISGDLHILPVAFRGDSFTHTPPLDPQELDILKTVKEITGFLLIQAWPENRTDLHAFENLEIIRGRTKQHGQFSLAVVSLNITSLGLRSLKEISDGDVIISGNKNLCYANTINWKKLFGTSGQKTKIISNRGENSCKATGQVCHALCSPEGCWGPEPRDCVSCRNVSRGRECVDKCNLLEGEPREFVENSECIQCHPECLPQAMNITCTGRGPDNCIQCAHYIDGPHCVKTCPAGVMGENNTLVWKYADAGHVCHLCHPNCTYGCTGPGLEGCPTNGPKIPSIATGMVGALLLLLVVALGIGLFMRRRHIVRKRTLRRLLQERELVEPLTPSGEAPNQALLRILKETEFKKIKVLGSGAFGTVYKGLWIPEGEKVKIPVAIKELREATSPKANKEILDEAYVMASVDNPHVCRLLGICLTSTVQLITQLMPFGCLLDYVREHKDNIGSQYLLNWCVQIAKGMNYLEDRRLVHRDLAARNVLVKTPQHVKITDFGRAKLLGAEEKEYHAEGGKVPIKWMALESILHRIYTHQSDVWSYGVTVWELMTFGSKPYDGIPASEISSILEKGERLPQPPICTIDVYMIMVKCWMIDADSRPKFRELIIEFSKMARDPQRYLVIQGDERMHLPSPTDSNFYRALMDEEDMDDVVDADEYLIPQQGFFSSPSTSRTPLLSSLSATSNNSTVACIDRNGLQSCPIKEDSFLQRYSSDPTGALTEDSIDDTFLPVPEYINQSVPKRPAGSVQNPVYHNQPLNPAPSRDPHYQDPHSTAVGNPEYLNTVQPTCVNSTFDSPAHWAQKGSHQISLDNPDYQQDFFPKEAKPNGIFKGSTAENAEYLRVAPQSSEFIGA
UniProt P00533, 25-1210 T790M/C797S/L858R limits assumed: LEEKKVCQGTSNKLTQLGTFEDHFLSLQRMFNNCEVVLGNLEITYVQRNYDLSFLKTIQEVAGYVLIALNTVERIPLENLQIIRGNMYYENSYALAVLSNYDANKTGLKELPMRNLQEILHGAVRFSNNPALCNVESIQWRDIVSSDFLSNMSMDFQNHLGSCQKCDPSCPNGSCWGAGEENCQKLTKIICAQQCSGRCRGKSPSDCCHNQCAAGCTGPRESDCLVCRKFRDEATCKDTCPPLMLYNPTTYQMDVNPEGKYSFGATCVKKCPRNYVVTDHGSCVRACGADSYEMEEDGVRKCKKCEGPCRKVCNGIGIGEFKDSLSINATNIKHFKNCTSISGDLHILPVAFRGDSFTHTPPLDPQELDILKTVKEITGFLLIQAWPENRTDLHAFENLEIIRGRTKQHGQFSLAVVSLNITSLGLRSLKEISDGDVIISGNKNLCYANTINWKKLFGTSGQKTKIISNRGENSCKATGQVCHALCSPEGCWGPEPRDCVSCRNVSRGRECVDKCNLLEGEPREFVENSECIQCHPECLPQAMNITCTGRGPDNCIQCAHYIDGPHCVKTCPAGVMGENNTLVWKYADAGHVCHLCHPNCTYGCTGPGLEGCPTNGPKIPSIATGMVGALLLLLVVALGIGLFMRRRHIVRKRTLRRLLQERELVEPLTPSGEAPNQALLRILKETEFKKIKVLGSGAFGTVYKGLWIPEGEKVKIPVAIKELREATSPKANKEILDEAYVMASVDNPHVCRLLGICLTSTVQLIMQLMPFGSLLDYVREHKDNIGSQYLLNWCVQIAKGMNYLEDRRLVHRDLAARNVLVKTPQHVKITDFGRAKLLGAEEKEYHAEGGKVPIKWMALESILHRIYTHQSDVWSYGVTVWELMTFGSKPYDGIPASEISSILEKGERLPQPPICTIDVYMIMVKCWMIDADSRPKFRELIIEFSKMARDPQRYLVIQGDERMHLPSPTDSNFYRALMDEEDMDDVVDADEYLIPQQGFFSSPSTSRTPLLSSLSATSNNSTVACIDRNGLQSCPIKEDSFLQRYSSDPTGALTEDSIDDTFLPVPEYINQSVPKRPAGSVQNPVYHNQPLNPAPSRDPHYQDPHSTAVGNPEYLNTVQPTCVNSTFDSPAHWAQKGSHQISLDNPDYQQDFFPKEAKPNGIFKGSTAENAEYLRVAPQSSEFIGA
UniProt P00533, with tags, fused parts or gaps INS770NPG limits assumed: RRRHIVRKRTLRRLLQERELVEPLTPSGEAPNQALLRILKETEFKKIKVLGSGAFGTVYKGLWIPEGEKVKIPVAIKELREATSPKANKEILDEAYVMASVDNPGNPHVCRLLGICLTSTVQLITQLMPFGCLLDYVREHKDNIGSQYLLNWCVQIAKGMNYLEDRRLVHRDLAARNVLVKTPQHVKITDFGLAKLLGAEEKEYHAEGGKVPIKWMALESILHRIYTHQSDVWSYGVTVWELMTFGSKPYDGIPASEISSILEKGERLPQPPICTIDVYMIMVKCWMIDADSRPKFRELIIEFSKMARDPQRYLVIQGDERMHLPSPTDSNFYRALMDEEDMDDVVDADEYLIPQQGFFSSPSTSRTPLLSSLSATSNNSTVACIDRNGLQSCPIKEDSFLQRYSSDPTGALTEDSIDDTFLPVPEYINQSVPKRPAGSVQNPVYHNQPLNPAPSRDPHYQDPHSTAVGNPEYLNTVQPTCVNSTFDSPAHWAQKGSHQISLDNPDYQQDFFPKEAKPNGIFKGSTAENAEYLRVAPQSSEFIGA
UniProt P00533, with tags, fused parts or gaps DEL746-750 limits assumed: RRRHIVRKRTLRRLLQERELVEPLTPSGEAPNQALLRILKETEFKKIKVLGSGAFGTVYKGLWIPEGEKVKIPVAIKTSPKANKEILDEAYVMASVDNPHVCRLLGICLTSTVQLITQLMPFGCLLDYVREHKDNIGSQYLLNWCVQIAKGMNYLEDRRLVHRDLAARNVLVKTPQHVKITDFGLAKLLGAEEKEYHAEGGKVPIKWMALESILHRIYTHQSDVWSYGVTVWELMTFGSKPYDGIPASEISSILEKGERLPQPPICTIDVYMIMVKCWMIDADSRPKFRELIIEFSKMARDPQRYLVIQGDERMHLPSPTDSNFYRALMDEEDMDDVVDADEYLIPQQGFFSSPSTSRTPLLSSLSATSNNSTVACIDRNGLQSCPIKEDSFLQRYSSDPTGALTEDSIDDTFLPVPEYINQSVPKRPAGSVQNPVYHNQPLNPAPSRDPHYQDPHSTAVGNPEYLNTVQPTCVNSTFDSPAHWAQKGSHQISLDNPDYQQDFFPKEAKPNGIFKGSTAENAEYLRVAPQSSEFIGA

Tests used:
EGFR WT = EGFR WT (Homo sapiens (Human), UniProt P00533); assay: HotSpot radiometric kinase assay (Reaction Biology), EGFR WT; conditions: read-out: EGFR wt IC50, 10 μM ATP
Method: (§1) Biochemical Assays for Inhibition of Wild-Type and Mutant EGFRs
(§2) Briefly, specific kinase/substrate pairs along with required cofactors were prepared in reaction buffer; 20 mM Hepes pH 7.5, 10 mM […], 1 mM EGTA, 0.02% Brij35, 0.02 mg/ml BSA, 0.1 mM Na3VO4, 2 mM DTT, 1% DMSO. Compounds were delivered into the reaction, followed […] later by addition of a mixture of ATP (Sigma, St. Louis MO) and ^33P ATP (Perkin Elmer, Waltham MA) to a final concentration of 10 μM. Reactions were carried out at room temperature for 120 min, followed by spotting of the reactions onto P81 ion exchange filter paper (Whatman Inc., Piscataway, NJ). Unbound phosphate was removed by extensive washing of filters in 0.75% phosphoric acid. […] IC50 values and curve fits were obtained using Prism (GraphPad Software).

EGFR (D770_N771insNPG) = EGFR (D770_N771insNPG) (Homo sapiens (Human), UniProt P00533, INS770NPG); assay: HotSpot radiometric kinase assay, EGFR (D770_N771insNPG); conditions: read-out: EGFR (Δ770_N771insNPG) IC50, 10 μM ATP
Method: as §1, §2

EGFR Δ746-750 mutant = EGFR Δ746-750 mutant (Homo sapiens (Human), UniProt P00533, DEL746-750); assay: HotSpot radiometric kinase assay, EGFR Δ746-750 mutant; conditions: read-out: EGFR (Δ746-750) IC50, 10 μM ATP
Method: as §1, §2

EGFR L858R mutant = EGFR L858R mutant (Homo sapiens (Human), UniProt P00533, L858R); assay: HotSpot radiometric kinase assay, EGFR L858R mutant; conditions: read-out: EGFR (L858R) IC50, 10 μM ATP
Method: as §1, §2

[1] = target: EGFR L858R/T790M/C797S mutant (Homo sapiens (Human), UniProt P00533, C797S/L858R/T790M); assay: HotSpot radiometric kinase assay, EGFR L858R/T790M/C797S mutant; conditions: read-out: EGFR (L858R/T790M/C797S) IC50, 10 μM ATP
Method: as §1, §2

Measured: pIC50

CC(C)NC(=O)c1cnc2c(c1)/C=C/c1n[nH]c3ccc(cc13)-c1cnn(C)c1COCCO2
< 6.00: EGFR WT | EGFR (D770_N771insNPG) | EGFR Δ746-750 mutant | EGFR L858R mutant | [1]

pIC50: −log10 of the molar value. Structures were worked out from names or drawings and are uncertain.
